Data on one molecule can be found in publication PMC12583530.

Numbering of substitutions follows the chain as printed. No constants are given. Whether binding was seen depends on the method and setting. In cells and extracts the contact can be indirect. Some binding calls cover weakened binding; strength is not graded here.

Experiment [1] addresses T1, endogenous PGK1 (phosphoglycerate kinase 1) (human (endogenous in SGC7901 and BGC823)) (UniProt P00558).
T1 sequence: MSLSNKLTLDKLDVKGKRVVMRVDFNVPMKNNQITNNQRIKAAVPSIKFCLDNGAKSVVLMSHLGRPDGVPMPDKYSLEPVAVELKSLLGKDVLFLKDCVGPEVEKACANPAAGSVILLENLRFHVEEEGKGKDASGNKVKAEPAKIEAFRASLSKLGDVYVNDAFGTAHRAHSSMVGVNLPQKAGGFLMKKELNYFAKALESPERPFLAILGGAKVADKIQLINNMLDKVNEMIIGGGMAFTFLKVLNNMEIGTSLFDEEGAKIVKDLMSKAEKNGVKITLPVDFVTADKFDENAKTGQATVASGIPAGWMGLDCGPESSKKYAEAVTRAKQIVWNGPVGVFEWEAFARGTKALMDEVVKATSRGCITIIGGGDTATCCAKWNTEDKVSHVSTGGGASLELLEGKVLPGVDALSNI
The experiment in a line: co-IP; endogenous proteins from whole cell lysates (SGC7901, BGC823); lysis buffer 50 mM Tris, 150 mM NaCl, 2 mM EDTA, 0.5% Triton X-100; antibody-conjugated beads at 4 °C overnight; Western blot; for PGK1-ACAT1 also in SGC7901 cells with TRIM8 shRNA or stable TRIM8 overexpression. (In general: Immunoblotting shows a protein as a band on a membrane.)

The target in experiment [2] is T2, PGK1 WT, overexpressed (human) (UniProt P00558).
T2 sequence: T1 sequence
The experiment in a line: co-IP; lysates of SGC7901 cells stably overexpressing PGK1 (control or TRIM8 shRNA; PGK1 IP) or transfected with PGK1 WT or K146R in the presence of TRIM8; Western blot for ACAT1.

Another experiment concerns the target T3, PGK1 K146R (human) (UniProt P00558).
T3 sequence: T1 sequence with K146R
Described as above.

B1: endogenous ACAT1 (enzyme, UniProt P24752 34-427)
chain: VSKPTLKEVVIVSATRTPIGSFLGSLSLLPATKLGSIAIQGAIEKAGIPKEEVKEAYMGNVLQGGEGQAPTRQAVLGAGLPISTPCTTINKVCASGMKAIMMASQSLMCGHQDVMVAGGMESMSNVPYVMNRGSTPYGGVKLEDLIVKDGLTDVYNKIHMGSCAENTAKKLNIARNEQDAYAINSYTRSKAAWEAGKFGNEVIPVTVTVKGQPDVVVKEDEEYKRVDFSKVPKLKTVFQKENGTVTAANASTLNDGAAALVLMTADAAKRLNVTPLARIVAFADAAVEPIDFPIAPVYAASMVLKDVGLKKEDIAMWEVNEAFSLVVLANIKMLEIDPQKVNINGGAVSLGHPIGMSGARIVGHLTHALKQGEYGLASICNGGGGASAMLIQKL
In the case of B1, the results for the binding entry (in experiment [1]; in experiment [2]; in the experiment with PGK1 K146R (human)) were “binds”, “binds” and “no binding”, respectively.
